The nature of the assay: qHTS Assay for Lipid Storage Modulators in Drosophila S3 Cells.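 For cell number change: cells counted by Cell Tracker Red CMTPX staining in the red channel.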 Conditions: BODIPY lipid droplet fluorescence, 18-24 h; for cell number change: measured here: cell count max response, cells fed with added oleic acid. The procedure, abridged:
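Laser-scanning cytometry quantifies lipid droplet accumulation (500–530 nm total intensity; droplet/cell object ratio) in oleic acid-fed (400 uM added) Drosophila S3 cells treated with a concentration series. 20 uM Triacsin C defined 100% inhibition.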

The mark [1] stands for this setting: measured here: cell number channel AC50, cells fed with added oleic acid.
Where [2] appears, read: measured here: lipid fluorescence (Fed channel) AC50, cells fed with added oleic acid.

Molecules are shown by their SMILES. Values joined by “and” are separate entries in the source; they are usually repeats but may differ in a detail not shown here. Identical values can stand only once. Some of the results follow. These are further read-outs of the screen, such as a control signal, another cell line or another target. No call is given for them. Compounds called inactive in the main read-out are mostly missing here. Words in brackets tell the shape of the fitted curve; partial curves, single points and poor fits give uncertain potencies.

The text below walks through data of PubChem BioAssay AID2685 (National Center for Advancing Translational Sciences (NCATS), 2010).

As a reminder, the AC50 is the concentration giving half of the maximal activity seen. Higher therefore signals activity only at high concentration.

Turning to `CCC/C(=N/NC(=O)c1csc(C)c1C)c1ccc(Cl)s1`, the cell number change was found to be 39.7%. Moreover, the AC50 under setting [1] was 2.91 µM [rising, full curve, poor fit].

In the case of `COc1ccc(/C=C2/C(=O)N(CC3CCCO3)C(=S)N2C)c(OC)c1` (stereo unspecified), the cell number change came to 30.7%. Further, the AC50 under setting [1] is 5.17 µM [rising, partial curve]. The AC50 under setting [2] was 2.31 µM [rising, partial curve].

Turning to `Cc1ccc(S(=O)(=O)N2CCN(C(=O)c3n[nH]c4ccccc34)CC2)cc1`, the cell number change is -1.06%. Besides, under setting [2], the AC50 is 1.64 µM [falling, partial curve].

In the case of `CCOC(=O)c1nn(-c2ccccc2F)c2nc(-c3ccco3)c(C#N)c(=O)n12`, the cell number change worked out at 23.2%. Besides, the half-maximal activity concentration (AC50) under setting [1] is 6.51 µM [rising, single point]. Besides, the AC50 under setting [2] is 3.66 µM [rising, partial curve, poor fit].

For `C=CCNS(=O)(=O)CC12CCC(CC1=O)C2(C)C` (stereo unspecified), the cell number change is -35.3%. For the same compound, under setting [1], the AC50 is 29.1 µM [falling, single point].

For the compound `Nc1nnc(-c2cc3ccccc3oc2=O)s1`, the AC50 is, setting by setting: under setting [1], 2.31 µM [rising, partial curve]; under setting [2], 1.46 µM [rising, partial curve].

For `CCC(=O)Nc1ccc(Nc2nc(Cl)nc(Nc3ccc(NC(=O)CC)cc3)n2)cc1`, under setting [1], the AC50 is 0.00411 µM [rising, full curve, poor fit].

As to `Cc1cc(-c2nnc(CCC(=O)NCc3cc(F)cc(C(F)(F)F)c3)o2)no1`, the cell number change amounted to 2.64%. Moreover, under setting [2], the AC50 is 5.8 µM [rising, single point].

Regarding `COc1cccc(CNC(=O)C2CCC(CNS(=O)(=O)c3cccc4cccnc34)CC2)c1` (stereo unspecified), the AC50 under setting [2] was 0.58 µM [falling, single point].

For `NC(=O)c1ccnc2c(O)cccc12`, the cell number change is -28.7% and -21.5%. Moreover, under setting [1], the AC50 is 0.103 µM [falling, full curve, poor fit]. For the same compound, under setting [2], the AC50 was 820 nM [falling, single point] and 13 µM [falling, single point].

With `Cc1cc2cc(CNC(=O)c3cccc([N+](=O)[O-])c3)ccc2[nH]1`, the cell number change came to 17%. Besides, the AC50 under setting [2] was 14.6 µM [rising, partial curve, poor fit].

For the compound `CCN(CC)S(=O)(=O)c1ccc(Cl)c(NC(=O)COC(=O)c2cccn2C)c1`, the cell number change came to 56.8%. For the same compound, the AC50 under setting [2] was 0.82 µM [rising, full curve].

On to `COc1ccc(N(CC(=O)O)S(=O)(=O)c2ccccc2[N+](=O)[O-])c(OC)c1`, for which the cell number change is -9.5%. In addition, under setting [2], the AC50 is 6.51 µM [falling, single point].

With `COc1ccc2cc(C(=O)C3CCCN(Cc4cccc(C)n4)C3)ccc2c1` (stereo unspecified), the cell number change was -9.41%.

As for `O=C(c1ccc(Br)o1)N(Cc1ccccc1)c1ccccn1`, the cell number change was -9.25%. In addition, under setting [2], the AC50 is 6.51 µM [rising, single point].

Regarding `CC(C)(C)n1nnnc1C(c1ccc(C#N)cc1)N1CCCC2(CCCCC2)C1` (stereo unspecified), the cell number change is -56.1%. In addition, the AC50 under setting [1] is 29.1 µM [falling, single point]. Further, under setting [2], the AC50 was 3.26 µM [rising, single point].

In the case of `Cc1ccc2[nH]c3c(c2c1)CCc1cn[nH]c1-3`, the AC50 under setting [1] was 0.326 µM [rising, partial curve, poor fit] and the AC50 under setting [2] was 0.366 µM [rising, partial curve, poor fit].

Take `O=C(c1ccccc1)C1CCc2occc2C1=O` (stereo unspecified): the cell number change is -25.4%. Moreover, the AC50 under setting [2] is 4.61 µM [falling, full curve].

Take `COc1ccc(CNc2ccc3c(c2)ncn3-c2ccccc2OC)cc1`: the cell number change is -7.13%.

For `CC1(c2ccc(OCC(N)=O)cc2)NC(=O)NC1=O` (stereo unspecified), the AC50 under setting [2] was 6.51 µM [rising, single point].

For `O=C(N/N=C/C=C/c1ccccc1)c1cccs1`, the cell number change is 51.8%. Moreover, the AC50 under setting [1] is 29.1 µM [rising, single point]. The AC50 under setting [2] is 29.1 µM [rising, single point].

Turning to `Cc1ccc(S(=O)(=O)N2CCC(C(=O)OCC(=O)N3CC(C)CC(C)C3)CC2)cc1C` (stereo unspecified), the cell number change was -16.5%.

Turning to `CCN1C(=O)[C@@H]2[C@@H](c3ccc(-c4ccc(OC)cc4)cc3)N3CCC[C@@]3(C(=O)OC)[C@@H]2C1=O`, the AC50 under setting [2] was 0.082 µM [rising, full curve, poor fit].

As to `NC(=O)C[n+]1cccc(C(N)=O)c1`, the AC50 under setting [2] is 1.64 µM [falling, partial curve].

For the compound `COc1cccc(CNC(=O)c2ccc(COc3ccccc3)cc2)c1`, the cell number change was found to be 23.8%. In addition, the AC50 under setting [2] was 29.1 µM [rising, single point].

Turning to `S=c1[nH]ccn1CCc1ccccc1`, the cell number change is 10.6%. In addition, the AC50 under setting [2] was 9.2 µM [rising, single point].

Consider `COc1ccc(NS(=O)(=O)c2cc3c(cc2C)N(C(C)=O)CCO3)cc1`, for which the cell number change is -8.36%. In addition, the half-maximal activity concentration (AC50) under setting [2] was 3.26 µM [rising, partial curve, poor fit].

With `Cc1cc(C)c2c(CN3CCOCC3)cc(=O)oc2c1`, the cell number change worked out at 33.3%. Besides, under setting [1], the AC50 was 1.16 µM [rising, partial curve].

On to `CC(Sc1nnnn1C1CC1)C(=O)Nc1cccc(S(=O)(=O)N2CCOCC2)c1` (stereo unspecified), for which the cell number change was -75%. In addition, under setting [1], the AC50 was 5.8 µM [falling, full curve].

Take `COc1ccc(CN(C(=O)c2oc3ccccc3c2C)C2CCS(=O)(=O)C2)cc1` (stereo unspecified): the cell number change is -31%. Also, the AC50 under setting [1] was 18.4 µM [falling, single point]. In addition, under setting [2], the AC50 was 0.58 µM [rising, full curve].

Regarding `CCOc1ccc(OCCOCCN2CCc3ccccc3C2)cc1`, the cell number change is 4.37%.

In the case of `Cc1ccc2cn[nH]c2c1[N+](=O)[O-]`, the cell number change was found to be 0.221%. Further, under setting [2], the AC50 was 0.731 µM [falling, single point].

`CC/C(=N/NC(=O)CCC(=O)Nc1ccccc1OC)c1ccccc1`: the cell number change is 8.53%. The AC50 under setting [1] was 0.461 µM [falling, single point].

Turning to `COc1ccc(N(CC(=O)N2CCN(c3ccccc3)CC2)S(=O)(=O)c2ccc(C)cc2)cc1`, the cell number change is -3.24%. In addition, under setting [2], the AC50 is 2.91 µM [rising, single point].

For the compound `CCOC(=O)c1[nH]c2ccccc2c1NC(=S)Nc1cccc(C)c1`, the cell number change was determined as 13.1%. Besides, the AC50 under setting [2] is 14.6 µM [rising, partial curve, poor fit].

Turning to `CCOC(=O)CCCN1CC(O)=C(c2nc(-c3ccc(Cl)cc3)cs2)C1=N`, the cell number change is 5.35%. Further, the AC50 under setting [2] is 6.51 µM [falling, single point].

`O=C(C1CCCN1S(=O)(=O)c1ccc(Cl)c(Cl)c1)N1CCOCC1` (stereo unspecified): the cell number change was -27.1%. Further, under setting [2], the AC50 was 0.206 µM [falling, full curve, poor fit].
